Results are given in words; binding and its absence hold for the method and conditions named. In cells and extracts the contact can be indirect. Some entries that bind do so weakly or less than the wild type. Tags and fused reporters may be left off the sequences shown.
T1: FOXA1-V5 (UniProt P55317)
T1 sequence: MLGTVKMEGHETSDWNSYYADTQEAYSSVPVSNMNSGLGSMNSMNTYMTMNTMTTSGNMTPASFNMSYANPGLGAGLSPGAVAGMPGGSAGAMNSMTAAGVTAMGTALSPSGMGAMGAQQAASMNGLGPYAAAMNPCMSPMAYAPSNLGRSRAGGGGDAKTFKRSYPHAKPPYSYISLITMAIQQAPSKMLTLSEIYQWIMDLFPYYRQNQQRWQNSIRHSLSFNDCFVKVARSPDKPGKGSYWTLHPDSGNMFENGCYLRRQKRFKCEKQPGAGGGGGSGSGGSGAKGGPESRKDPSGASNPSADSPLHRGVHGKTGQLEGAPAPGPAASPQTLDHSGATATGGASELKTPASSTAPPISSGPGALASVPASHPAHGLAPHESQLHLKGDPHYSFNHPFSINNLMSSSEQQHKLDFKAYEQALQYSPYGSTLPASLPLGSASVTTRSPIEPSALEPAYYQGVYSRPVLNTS

Chains of the proteins cited; added tags and fusions are not shown. Lines headed by an entry give the natural chain unless they say otherwise; changes in a name come on top. A line that says so, or that is headed by a name, gives the form on record, which may keep a tag or linker.
UniProt P10275: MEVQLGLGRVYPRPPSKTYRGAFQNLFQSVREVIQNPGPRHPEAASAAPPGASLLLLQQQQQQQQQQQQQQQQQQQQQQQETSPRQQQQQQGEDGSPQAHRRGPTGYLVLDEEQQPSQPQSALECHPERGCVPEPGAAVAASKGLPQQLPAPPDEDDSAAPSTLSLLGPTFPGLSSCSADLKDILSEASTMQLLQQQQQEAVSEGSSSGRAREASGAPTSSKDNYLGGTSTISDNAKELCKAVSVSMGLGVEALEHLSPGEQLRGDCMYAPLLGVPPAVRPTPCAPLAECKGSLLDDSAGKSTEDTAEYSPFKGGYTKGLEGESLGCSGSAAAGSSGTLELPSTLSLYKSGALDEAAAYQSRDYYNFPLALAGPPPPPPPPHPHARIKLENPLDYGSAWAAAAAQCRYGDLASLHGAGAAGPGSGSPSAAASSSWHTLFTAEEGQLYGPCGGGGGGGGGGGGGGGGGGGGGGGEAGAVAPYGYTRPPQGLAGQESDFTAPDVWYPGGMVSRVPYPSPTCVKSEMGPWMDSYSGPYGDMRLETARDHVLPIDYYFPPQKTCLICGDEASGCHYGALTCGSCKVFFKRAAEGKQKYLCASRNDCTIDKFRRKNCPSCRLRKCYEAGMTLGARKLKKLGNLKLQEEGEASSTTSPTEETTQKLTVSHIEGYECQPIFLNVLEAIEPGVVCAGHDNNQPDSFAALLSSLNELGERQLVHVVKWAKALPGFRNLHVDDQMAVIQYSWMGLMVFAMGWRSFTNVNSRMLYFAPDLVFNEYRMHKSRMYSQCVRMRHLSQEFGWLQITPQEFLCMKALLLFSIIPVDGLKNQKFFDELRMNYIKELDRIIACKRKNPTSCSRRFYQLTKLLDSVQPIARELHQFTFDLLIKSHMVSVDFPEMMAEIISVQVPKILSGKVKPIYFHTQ
androgen receptor splice variant AR-V7 (P10275-3, form named): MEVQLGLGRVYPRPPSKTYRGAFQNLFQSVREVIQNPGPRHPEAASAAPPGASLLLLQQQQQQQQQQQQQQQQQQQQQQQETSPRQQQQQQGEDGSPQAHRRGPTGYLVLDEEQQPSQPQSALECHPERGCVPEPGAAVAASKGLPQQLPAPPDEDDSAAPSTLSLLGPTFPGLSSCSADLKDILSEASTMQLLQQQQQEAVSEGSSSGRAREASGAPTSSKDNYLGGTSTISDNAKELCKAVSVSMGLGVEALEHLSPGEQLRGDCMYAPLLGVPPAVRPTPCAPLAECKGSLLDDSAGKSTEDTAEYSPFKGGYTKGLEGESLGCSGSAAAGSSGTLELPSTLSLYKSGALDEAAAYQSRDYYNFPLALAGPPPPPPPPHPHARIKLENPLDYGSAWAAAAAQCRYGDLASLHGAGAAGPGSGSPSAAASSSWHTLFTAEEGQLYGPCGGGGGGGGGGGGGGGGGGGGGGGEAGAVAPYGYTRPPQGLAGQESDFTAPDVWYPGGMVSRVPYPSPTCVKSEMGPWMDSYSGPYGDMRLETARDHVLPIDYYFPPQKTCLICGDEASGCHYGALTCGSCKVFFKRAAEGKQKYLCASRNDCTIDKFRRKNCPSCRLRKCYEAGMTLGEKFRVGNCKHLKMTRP

B1: FOXA1-V5 (protein, UniProt P55317 1-472)
chain: T1 sequence

What was measured:
Assay in all cases: co-IP; HEK293T/17 cells in DMEM with 10% CSS co-transfected with FOXA1-V5 + AR (10 nM R1881 for 4 h) or FOXA1-V5 + AR-V7; lysis in 1X TESH buffer with 0.15 M NaCl; about 250 ug protein with 2 ug AR441, FOXA1 antibody or control IgG, 1 h at 4 °C; protein A/G magnetic beads; elution with RIPA, then SDS sample buffer; western blot with AR441 and FOXA1 antibody; both directions of IP
[1] = molecular target: T1, FOXA1-V5
[2] = molecular target: androgen receptor (AR), full length (UniProt P10275)
[3] = molecular target: androgen receptor splice variant AR-V7 (UniProt P10275)

| Molecule | binding [1] | binding [2] | binding [3] |
| --- | --- | --- | --- |
| androgen receptor (AR), full length (from UniProt P10275 1-920) | binds | – | – |
| androgen receptor splice variant AR-V7 (from UniProt P10275-3 1-644) | binds | – | – |
| B1 | – | binds | binds |

From PMC8969163
